Test results reported in US11813257B2, “Methods of treating erythropoietic protoporphyria, X-linked protoporphyria, or congenital erythropoietic porphyria with glycine transport inhibitors” (Disc Medicine, Inc., priority 2020, dated 2023).
Some entries share one result that the patent states for a list of compounds.

Tested on: K562 clone-9 cells
Experiment: EPP cellular model: PPIX level by flow cytometry after 96 h compound incubation
Type: cell-based
Method: Knockout guide sequences were designed to target Exon3 of the Ferrochelatase gene.
K562 cells were cultured in Iscove's Modified Dulbecco's Medium (IMDM) supplemented with 10% fetal bovine serum (FBS), 1% penicillin/streptomycin (PS). CRISPR Cas9 RNP complex with guide RNA was electroporated in K562 cells. Genomic DNA from the pooled cells was isolated, amplified by PCR and sequenced by Sanger sequencing to determine knockout efficiency. Single-cell clones were isolated by fluorescent-assisted cell sorting (FACS). TA cloning and Sanger sequencing were used to confirm single-cell clones and genotypes. Five clones were selected (Clone IDs are: Clone 1-7; Clone 1-9; Clone 1-10, Clone 1-32; Clone 1-51; and K562 WT) for further characterization by western blot (FIG. 1) to determine FECH protein expression levels (Antibody: FECH Antibody Rabbit Polyclonal, Proteintech, 14466-1-AP) and flow cytometry to determine the PPIX levels (FIG. 2). LC/MS/MS confirmed the accumulation of PPIX in clone 1-9 compared to WT K562 cells (FIG. 3).
900 μL of K562 clone-9 cells at 2×10^5 cells/mL in IMDM media with 10% FBS and 1% PS were plated into a 24-well plate. […] Cell viability and cell count were measured by Vi-CELL XR Complete System. Finally, the effect of the compound on PPIX level was determined by flow cytometry.

| Structure (SMILES) | dose-dependent inhibition of PPIX accumulation by flow cytometry, maximal extent |
| --- | --- |
| CN1C[C@@H]2[C@H](C1)[C@H]2CN(Cc1ccc(F)c(Cl)c1)C(=O)c1cn(C)cn1 [PF-03463275] | up to 50% |
| C[C@H](Oc1ccc(S(C)(=O)=O)cc1C(=O)N1CCN(c2ncc(C(F)(F)F)cc2F)CC1)C(F)(F)F [Bitopertin, bitopertin] | up to 50% |
